Patent US20120190612A1, “METHODS OF TREATMENT” (CRC FOR ASTHMA AND AIRWAYS LTD., priority 2009, published 2012)
No constants are given. Whether binding was seen depends on the method and setting. Some entries that bind do so weakly or less than the wild type.

Chains of the proteins cited; added tags and fusions are not shown. Lines headed by an entry give the natural chain unless they say otherwise; changes in a name come on top. Residues count along the entry.
UniProt P08648, residues 42-1049: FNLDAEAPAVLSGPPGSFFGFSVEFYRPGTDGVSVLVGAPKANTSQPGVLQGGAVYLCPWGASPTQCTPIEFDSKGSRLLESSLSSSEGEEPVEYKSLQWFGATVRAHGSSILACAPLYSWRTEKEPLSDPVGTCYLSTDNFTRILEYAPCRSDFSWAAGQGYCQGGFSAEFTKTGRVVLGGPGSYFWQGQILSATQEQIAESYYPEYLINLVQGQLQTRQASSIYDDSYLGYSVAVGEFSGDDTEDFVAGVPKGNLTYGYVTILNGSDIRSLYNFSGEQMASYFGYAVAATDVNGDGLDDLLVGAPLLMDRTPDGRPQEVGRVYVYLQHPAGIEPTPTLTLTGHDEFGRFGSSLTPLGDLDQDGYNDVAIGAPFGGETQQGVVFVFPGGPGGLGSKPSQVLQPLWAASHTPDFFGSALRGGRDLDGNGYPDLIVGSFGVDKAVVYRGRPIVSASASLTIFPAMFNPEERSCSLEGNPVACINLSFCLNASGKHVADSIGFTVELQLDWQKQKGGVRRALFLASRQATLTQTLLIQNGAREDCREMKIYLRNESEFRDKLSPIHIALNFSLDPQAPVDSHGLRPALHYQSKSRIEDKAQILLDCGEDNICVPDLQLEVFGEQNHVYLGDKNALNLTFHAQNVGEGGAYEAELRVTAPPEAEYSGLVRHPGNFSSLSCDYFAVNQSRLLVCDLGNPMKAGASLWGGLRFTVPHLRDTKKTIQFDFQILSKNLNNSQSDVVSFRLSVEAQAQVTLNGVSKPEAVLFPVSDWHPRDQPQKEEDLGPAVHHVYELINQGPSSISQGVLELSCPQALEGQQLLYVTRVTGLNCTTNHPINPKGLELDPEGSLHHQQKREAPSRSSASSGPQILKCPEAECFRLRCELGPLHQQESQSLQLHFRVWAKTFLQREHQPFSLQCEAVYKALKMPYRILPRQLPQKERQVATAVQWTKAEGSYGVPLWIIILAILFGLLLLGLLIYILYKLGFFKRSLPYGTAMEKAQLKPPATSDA
UniProt P05556: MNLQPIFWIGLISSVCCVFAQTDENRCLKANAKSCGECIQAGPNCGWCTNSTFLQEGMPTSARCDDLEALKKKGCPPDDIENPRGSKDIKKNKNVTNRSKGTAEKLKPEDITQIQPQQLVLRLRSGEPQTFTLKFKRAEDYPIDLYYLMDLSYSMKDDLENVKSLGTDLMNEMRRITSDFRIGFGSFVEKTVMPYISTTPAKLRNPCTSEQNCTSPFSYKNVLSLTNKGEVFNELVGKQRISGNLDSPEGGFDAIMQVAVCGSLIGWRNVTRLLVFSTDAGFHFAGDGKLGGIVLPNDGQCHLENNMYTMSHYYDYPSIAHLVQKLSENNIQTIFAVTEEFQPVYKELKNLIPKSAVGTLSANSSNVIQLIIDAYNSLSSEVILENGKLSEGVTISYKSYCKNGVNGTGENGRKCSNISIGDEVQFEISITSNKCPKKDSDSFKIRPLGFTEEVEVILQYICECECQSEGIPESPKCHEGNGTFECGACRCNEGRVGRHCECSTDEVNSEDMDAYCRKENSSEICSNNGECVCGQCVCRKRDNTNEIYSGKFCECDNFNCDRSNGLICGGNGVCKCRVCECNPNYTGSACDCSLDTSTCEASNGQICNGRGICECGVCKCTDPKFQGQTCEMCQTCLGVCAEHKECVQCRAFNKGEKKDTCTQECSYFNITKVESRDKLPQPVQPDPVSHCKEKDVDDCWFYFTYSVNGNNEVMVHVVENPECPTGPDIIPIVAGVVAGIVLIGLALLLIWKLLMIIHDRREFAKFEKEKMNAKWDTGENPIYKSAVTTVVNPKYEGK
UniProt P29400: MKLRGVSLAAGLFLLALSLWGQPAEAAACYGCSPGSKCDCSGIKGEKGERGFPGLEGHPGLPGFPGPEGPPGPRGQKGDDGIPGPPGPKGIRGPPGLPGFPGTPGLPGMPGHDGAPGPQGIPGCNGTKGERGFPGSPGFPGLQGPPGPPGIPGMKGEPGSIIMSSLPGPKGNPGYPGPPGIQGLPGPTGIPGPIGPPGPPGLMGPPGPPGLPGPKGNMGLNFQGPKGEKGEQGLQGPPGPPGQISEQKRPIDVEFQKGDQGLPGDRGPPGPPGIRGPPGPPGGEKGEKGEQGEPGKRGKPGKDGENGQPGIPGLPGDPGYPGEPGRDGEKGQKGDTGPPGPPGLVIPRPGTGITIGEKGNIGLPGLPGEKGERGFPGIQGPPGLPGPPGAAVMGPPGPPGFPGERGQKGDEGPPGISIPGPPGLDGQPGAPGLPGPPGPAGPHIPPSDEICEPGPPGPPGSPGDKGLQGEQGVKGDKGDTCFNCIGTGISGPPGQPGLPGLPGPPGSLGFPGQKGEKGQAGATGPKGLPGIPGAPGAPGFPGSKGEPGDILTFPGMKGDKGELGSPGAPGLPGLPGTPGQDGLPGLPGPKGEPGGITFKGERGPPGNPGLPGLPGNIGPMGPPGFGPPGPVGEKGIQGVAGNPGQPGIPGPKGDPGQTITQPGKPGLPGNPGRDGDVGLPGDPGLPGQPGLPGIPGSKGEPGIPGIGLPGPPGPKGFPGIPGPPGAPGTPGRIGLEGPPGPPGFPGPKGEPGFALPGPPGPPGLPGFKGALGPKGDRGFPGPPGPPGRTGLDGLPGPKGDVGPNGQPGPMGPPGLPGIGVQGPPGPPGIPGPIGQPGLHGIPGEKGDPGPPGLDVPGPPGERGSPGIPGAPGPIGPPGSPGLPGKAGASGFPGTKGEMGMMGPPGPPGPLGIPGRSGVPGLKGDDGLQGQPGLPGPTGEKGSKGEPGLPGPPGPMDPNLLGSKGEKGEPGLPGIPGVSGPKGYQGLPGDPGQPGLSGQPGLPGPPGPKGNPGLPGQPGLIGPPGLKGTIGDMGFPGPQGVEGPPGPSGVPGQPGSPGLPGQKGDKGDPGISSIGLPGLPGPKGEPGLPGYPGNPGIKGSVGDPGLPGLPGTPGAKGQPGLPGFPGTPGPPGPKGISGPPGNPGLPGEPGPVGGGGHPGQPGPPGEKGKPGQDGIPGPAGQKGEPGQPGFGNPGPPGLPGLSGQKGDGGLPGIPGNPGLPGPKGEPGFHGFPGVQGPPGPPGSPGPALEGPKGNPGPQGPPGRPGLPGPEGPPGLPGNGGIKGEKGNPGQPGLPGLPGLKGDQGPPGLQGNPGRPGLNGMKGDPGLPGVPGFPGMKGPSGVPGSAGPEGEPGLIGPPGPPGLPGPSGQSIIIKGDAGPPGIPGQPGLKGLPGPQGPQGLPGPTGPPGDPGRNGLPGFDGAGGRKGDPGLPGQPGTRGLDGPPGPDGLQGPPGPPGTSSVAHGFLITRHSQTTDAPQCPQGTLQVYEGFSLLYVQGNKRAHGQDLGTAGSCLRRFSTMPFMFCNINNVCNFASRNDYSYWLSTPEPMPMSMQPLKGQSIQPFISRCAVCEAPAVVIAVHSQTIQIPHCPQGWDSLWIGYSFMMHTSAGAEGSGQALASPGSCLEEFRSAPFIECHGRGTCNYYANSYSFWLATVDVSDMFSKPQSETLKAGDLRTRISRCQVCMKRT
UniProt Q01955: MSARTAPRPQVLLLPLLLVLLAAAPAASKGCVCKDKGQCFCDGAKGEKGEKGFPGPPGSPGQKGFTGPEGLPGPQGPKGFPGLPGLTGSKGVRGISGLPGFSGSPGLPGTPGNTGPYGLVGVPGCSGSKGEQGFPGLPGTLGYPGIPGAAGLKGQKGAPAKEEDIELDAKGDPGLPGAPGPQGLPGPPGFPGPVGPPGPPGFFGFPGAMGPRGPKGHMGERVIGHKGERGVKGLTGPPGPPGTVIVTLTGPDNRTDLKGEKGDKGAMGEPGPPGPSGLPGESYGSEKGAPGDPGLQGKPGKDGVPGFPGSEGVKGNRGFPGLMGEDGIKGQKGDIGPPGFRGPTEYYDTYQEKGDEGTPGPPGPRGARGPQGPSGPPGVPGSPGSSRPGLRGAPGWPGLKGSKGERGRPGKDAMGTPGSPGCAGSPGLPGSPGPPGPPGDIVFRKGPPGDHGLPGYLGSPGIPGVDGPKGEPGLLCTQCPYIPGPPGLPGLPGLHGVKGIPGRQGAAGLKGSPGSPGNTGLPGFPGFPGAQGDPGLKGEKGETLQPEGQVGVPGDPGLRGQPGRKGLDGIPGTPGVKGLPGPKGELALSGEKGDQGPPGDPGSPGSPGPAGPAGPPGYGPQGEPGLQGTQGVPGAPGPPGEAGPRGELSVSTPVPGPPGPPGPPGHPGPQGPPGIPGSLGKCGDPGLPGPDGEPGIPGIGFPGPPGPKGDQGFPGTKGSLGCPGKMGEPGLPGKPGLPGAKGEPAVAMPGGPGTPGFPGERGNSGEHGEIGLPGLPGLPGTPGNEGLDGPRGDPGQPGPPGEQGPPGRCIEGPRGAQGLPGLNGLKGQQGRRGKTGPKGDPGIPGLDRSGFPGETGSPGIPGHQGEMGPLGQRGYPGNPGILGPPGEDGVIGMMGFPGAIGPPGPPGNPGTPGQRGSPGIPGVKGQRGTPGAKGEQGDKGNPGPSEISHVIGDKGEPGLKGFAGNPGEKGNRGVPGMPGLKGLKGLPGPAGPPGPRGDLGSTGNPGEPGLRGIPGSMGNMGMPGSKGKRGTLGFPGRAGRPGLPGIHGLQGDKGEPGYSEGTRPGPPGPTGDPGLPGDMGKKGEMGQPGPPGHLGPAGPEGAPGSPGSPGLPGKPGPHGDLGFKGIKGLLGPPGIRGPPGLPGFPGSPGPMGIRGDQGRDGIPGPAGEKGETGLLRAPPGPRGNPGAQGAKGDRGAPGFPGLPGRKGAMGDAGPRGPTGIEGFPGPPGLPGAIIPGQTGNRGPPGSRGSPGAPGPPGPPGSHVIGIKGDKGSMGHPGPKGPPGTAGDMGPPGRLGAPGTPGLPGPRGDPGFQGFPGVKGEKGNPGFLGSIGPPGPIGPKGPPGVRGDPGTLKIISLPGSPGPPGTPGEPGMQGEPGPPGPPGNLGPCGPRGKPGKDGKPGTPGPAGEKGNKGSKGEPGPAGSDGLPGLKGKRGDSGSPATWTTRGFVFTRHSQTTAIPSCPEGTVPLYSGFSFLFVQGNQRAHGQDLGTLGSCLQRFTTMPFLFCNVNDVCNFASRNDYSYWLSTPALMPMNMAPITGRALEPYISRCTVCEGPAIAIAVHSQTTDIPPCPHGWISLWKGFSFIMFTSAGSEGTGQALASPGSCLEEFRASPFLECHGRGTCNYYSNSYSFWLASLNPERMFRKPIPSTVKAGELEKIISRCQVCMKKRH

Experiments:
[1] = target: integrin α5 on HMVEC-LLy cells (human) (UniProt P08648); test: HMVEC-LLy cell binding in vitro, integrin identification
[2] = target: integrin β1 on HMVEC-LLy cells (human) (UniProt P05556); test: as above
[3] = target: integrin α5 on HMVEC-LLy cells (human) (UniProt P08648); test: HMVEC-LLy cell attachment with anti-integrin antibodies, lamstatin 10 µg/ml
[4] = target: integrin β1 on HMVEC-LLy cells (human) (UniProt P05556); test: as above

binding [1]	binding [2]	binding [3]	binding [4]	Substance
binds	binds	binds	binds	lamstatin (NC1 domain of the α5 chain of collagen type IV) (from UniProt P29400 1461-1685) (ligand)
binds	binds	–	–	tumstatin (NC1 domain of the α3 chain of collagen type IV) (from UniProt Q01955 1445-1670) (ligand)
